Experimental data taken from the supplement of paper PMC10849652.
The list shows a part of the results.

Protein sequences, listed by entry. Tags and fused reporters are not part of them. Lines headed by an entry give the natural chain unless they say otherwise; changes in a name come on top.
UniProt Q13424: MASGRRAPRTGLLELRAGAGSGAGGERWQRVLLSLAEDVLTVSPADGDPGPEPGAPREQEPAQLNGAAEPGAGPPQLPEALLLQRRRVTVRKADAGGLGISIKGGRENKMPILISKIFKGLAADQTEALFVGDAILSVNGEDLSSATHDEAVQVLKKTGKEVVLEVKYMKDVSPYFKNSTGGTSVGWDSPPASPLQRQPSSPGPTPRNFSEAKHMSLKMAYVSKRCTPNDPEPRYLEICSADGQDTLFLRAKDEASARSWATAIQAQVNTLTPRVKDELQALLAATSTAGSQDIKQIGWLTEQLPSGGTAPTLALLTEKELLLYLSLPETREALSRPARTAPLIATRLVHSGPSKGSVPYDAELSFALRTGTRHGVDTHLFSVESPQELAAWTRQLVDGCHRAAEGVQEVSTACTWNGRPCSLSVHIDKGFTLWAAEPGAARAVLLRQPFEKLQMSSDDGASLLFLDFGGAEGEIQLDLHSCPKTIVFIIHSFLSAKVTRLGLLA
UniProt Q9Y5W9: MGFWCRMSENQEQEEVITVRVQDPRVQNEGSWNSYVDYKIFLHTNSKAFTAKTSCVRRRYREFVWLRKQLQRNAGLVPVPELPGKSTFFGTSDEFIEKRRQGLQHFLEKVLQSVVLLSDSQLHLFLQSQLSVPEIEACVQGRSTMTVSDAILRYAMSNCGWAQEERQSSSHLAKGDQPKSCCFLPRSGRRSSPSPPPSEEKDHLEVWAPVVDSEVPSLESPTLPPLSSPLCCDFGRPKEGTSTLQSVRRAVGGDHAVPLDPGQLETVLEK
UniProt P0C7P3: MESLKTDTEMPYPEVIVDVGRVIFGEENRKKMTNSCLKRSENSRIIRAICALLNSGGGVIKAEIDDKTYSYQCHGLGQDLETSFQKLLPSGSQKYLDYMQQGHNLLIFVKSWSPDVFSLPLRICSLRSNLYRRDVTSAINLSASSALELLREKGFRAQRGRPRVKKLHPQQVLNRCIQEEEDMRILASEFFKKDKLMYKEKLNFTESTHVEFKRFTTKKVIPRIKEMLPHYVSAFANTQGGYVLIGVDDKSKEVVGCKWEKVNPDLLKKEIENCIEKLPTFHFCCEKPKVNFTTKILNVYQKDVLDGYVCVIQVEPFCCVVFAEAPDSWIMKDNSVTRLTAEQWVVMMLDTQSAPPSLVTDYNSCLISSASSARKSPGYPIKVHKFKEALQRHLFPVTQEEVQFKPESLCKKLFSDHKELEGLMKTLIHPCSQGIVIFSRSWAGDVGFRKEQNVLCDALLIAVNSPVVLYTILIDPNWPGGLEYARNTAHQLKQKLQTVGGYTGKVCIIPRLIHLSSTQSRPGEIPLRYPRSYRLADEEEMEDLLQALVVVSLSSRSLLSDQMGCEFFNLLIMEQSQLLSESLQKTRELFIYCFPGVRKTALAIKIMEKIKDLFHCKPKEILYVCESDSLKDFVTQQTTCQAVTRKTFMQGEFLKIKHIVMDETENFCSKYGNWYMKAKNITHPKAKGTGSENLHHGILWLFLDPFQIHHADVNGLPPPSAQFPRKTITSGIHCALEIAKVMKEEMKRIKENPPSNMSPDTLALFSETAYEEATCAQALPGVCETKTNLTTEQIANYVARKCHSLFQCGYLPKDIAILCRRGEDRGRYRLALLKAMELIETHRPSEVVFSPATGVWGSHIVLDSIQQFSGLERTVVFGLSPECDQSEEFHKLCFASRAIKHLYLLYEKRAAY
UniProt Q15796, whole entry, looked up: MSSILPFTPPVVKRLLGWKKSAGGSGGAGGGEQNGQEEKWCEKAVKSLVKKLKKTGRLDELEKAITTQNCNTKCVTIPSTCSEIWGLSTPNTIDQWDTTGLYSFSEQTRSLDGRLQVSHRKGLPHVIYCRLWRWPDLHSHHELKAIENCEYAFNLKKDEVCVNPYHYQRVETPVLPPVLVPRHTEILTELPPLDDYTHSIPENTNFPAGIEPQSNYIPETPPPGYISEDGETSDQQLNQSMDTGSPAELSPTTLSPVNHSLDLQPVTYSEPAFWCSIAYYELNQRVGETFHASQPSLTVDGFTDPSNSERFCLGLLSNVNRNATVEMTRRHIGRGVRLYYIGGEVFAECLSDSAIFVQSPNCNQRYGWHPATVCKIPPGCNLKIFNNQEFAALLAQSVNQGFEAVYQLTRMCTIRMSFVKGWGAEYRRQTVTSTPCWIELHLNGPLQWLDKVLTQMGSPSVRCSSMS
UniProt P08047, whole entry, looked up: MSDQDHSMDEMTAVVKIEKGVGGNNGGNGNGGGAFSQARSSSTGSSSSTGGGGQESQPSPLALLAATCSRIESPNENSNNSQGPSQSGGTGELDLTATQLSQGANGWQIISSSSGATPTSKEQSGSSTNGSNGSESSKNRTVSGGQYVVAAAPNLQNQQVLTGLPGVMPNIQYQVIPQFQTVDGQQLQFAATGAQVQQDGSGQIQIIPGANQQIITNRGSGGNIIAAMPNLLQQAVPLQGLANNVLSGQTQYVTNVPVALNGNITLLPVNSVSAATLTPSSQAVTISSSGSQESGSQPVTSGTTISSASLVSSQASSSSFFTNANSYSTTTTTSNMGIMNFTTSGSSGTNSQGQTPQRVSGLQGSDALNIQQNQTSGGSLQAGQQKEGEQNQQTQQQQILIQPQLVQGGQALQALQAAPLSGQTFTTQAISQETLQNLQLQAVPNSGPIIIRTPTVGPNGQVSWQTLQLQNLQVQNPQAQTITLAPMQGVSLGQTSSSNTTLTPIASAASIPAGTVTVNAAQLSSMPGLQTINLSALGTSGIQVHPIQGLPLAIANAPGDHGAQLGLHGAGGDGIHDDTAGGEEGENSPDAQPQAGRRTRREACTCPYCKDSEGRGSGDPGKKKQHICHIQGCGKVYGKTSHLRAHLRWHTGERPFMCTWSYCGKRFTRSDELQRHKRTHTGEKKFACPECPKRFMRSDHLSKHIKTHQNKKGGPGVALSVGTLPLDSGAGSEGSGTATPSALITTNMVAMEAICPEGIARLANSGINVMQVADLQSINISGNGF
UniProt Q8TEV9: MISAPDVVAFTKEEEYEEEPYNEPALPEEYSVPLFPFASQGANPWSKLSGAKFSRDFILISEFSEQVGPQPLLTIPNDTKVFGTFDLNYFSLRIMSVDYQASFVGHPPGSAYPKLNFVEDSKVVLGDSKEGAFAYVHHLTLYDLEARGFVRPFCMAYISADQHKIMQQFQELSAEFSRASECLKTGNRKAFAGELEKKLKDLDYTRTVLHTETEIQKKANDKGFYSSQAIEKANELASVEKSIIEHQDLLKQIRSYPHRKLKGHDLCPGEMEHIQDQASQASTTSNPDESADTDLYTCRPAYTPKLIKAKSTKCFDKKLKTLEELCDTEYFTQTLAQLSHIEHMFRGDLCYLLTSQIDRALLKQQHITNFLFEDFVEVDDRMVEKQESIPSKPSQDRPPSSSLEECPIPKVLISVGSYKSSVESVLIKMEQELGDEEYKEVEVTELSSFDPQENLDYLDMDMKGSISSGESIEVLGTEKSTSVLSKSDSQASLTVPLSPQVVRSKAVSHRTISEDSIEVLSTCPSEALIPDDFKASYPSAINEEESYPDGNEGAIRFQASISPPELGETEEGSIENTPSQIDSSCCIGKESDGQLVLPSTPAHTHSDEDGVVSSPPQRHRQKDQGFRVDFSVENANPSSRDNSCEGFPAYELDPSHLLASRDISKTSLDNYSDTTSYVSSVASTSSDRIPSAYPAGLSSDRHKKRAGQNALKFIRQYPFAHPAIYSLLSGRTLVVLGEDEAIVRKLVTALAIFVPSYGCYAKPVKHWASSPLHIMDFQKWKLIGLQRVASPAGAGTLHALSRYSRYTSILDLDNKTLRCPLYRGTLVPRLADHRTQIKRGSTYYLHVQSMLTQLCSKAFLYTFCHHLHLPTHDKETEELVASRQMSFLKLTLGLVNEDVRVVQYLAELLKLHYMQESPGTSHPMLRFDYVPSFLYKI
UniProt Q13573: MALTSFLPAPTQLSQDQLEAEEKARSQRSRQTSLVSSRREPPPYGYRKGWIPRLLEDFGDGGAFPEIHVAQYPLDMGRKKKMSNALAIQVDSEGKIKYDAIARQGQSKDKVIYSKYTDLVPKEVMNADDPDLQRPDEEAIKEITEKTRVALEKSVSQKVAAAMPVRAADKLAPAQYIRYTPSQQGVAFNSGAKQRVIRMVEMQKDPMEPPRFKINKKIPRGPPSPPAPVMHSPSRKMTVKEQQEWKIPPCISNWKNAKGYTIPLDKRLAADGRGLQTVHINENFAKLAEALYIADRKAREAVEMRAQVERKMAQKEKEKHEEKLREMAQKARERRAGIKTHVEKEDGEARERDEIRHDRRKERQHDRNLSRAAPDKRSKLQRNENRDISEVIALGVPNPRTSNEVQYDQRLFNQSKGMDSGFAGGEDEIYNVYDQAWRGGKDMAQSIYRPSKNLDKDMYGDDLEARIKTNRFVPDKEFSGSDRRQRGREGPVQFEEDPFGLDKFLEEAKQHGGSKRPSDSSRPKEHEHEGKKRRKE
UniProt P35610: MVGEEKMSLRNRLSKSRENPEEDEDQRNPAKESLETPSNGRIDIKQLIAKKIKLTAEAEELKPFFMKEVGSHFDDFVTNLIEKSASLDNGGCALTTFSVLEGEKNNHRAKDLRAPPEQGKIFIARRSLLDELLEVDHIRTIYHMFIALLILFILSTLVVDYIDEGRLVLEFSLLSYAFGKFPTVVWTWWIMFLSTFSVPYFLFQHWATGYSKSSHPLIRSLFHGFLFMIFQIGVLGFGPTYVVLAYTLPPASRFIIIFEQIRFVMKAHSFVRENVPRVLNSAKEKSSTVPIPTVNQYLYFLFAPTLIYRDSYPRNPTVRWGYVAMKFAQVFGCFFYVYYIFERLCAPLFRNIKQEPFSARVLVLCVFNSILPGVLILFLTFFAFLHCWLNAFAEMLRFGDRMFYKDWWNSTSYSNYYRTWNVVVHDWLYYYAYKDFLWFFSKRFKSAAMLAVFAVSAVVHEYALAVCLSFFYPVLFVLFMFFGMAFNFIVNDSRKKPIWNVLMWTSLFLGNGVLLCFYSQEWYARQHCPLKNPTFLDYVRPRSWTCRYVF

Experiments:
Experiment in all cases: log2 fold change, soluble protein after heating vs DMSO (PISA); higher = thermal stabilisation; K562 cells, 10 uM, 30 min; active = over 0.2 and 3.5 SD of the protein, either way, in both replicates (recomputed)
saracatinib = compound: CN1CCN(CCOc2cc(OC3CCOCC3)c3c(Nc4c(Cl)ccc5c4OCO5)ncnc3c2)CC1 [saracatinib]
Summary of the method: (§1)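 K562 cells at 2×10^6 cells/mL were exposed to 10 μM compound for 30 min, then aliquots were heated for 3 min across 48°C-58°C, pooled, and extracted in PBS containing 0.5% NP-40 at 4°C. The supernatant after 21,000xg for 90 min was taken as soluble protein and measured by TMTpro 16plex LC-MS/MS with channel sums equalised. Thermal stability is reported relative to control samples, with values from duplicates. Fold changes are given on a log2 scale.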

sotrastaurin = compound: CN1CCN(c2nc(C3=C(c4c[nH]c5ccccc45)C(=O)NC3=O)c3ccccc3n2)CC1 [sotrastaurin]
Summary of the method: as §1

alvocidib = compound: CN1CC[C@H](c2c(O)cc(O)c3c(=O)cc(-c4ccccc4Cl)oc23)[C@H](O)C1 [alvocidib]
Summary of the method: as §1

Tubastatin A = compound: CN1CCc2c(c3ccccc3n2Cc2ccc(C(=O)NO)cc2)C1 [Tubastatin A]
Summary of the method: as §1

defactinib = compound: CNC(=O)c1ccc(Nc2ncc(C(F)(F)F)c(NCc3nccnc3N(C)S(C)(=O)=O)n2)cc1 [defactinib]
Summary of the method: as §1

[1] = compound: CNc1nc(-c2ccc3c(N)n[nH]c3c2)cc(N2C[C@@H](C(=O)NC3CCCCC3)CC[C@H]2C)n1
Summary of the method: as §1

[2] = compound: COC(=O)[C@H](CCSC)NC(=O)C1=C(C=C(C=C1)NC[C@H](CS)N)C2=CC=CC=C2
Summary of the method: as §1

[3] = compound: COC1=CC=C(C=C1)CN2C=CC3=C2C=C(C=C3)C(=O)NO
Summary of the method: as §1

filanesib = compound: CON(C)C(=O)N1N=C(c2cc(F)ccc2F)S[C@@]1(CCCN)c1ccccc1 [filanesib]
Summary of the method: as §1

zotarolimus = compound: CO[C@H]1C[C@@H]2CC[C@@H](C)[C@@](O)(O2)C(=O)C(=O)N2CCCC[C@H]2C(=O)O[C@H]([C@H](C)C[C@@H]2CC[C@H](n3cnnn3)[C@H](OC)C2)CC(=O)[C@H](C)/C=C(\C)[C@@H](O)[C@@H](OC)C(=O)[C@H](C)C[C@H](C)/C=C/C=C/C=C/1C [zotarolimus]
Summary of the method: as §1

idasanutlin = compound: COc1cc(C(=O)O)ccc1NC(=O)[C@@H]1N[C@@H](CC(C)(C)C)[C@](C#N)(c2ccc(Cl)cc2F)[C@H]1c1cccc(Cl)c1F [idasanutlin]
Summary of the method: as §1

alisertib = compound: COc1cc(Nc2ncc3c(n2)-c2ccc(Cl)cc2C(c2c(F)cccc2OC)=NC3)ccc1C(=O)O [alisertib]
Summary of the method: as §1

[4] = compound: COc1cc2nc(-c3cc(F)ccc3O)nc(N[C@@H]3CNC[C@H]3C(C)(C)O)c2cc1OC
Summary of the method: as §1

gefitinib = compound: COc1cc2ncnc(Nc3ccc(F)c(Cl)c3)c2cc1OCCCN1CCOCC1 [gefitinib]
Summary of the method: as §1

[5] = compound: COc1cccc2cc(-c3nc([C@H]4CC[C@H](C(=O)O)CC4)n4ncnc(N)c34)[nH]c12
Summary of the method: as §1

lapatinib = compound: CS(=O)(=O)CCNCc1ccc(-c2ccc3ncnc(Nc4ccc(OCc5cccc(F)c5)c(Cl)c4)c3c2)o1 [lapatinib]
Summary of the method: as §1

pictilisib = compound: CS(=O)(=O)N1CCN(Cc2cc3nc(-c4cccc5[nH]ncc45)nc(N4CCOCC4)c3s2)CC1 [pictilisib]
Summary of the method: as §1

[6] = compound: CNC(=O)C1=CC=CC=C1NC2=NC(=NC=C2Cl)NC3=C(C=C(C=C3)N4CCOCC4)OC
Summary of the method: as §1

rucaparib = compound: CNCc1ccc(-c2[nH]c3cc(F)cc4c3c2CCNC4=O)cc1 [rucaparib]
Summary of the method: as §1

encorafenib = compound: COC(=O)N[C@@H](C)CNc1nccc(-c2cn(C(C)C)nc2-c2cc(Cl)cc(NS(C)(=O)=O)c2F)n1 [encorafenib]
Summary of the method: as §1

Measured: log2 fold change

SNTA1 (UniProt Q13424)
inactive: saracatinib 0.145 | sotrastaurin -0.077 | alvocidib 0.017 | Tubastatin A 0.026 | defactinib 0.045 | [1] 0.038 | [2] 0.085 | [3] 0.003 | filanesib 0.069 | zotarolimus 0.005 | idasanutlin -0.011 | alisertib -0.093 | [4] 0.172 | gefitinib 0.096 | [5] 0.045 | lapatinib 0.151 | pictilisib 0.069

SNX11 (UniProt Q9Y5W9)
inactive: saracatinib -0.055 | sotrastaurin -0.055 | Tubastatin A -0.014 | [6] 0.011 | defactinib -0.02 | rucaparib -0.001 | [1] 0.055 | encorafenib -0.074 | [2] 0.002 | [3] 0.025 | filanesib -0.128 | zotarolimus 0.043 | idasanutlin -0.008 | alisertib -0.062 | [4] -0.15 | gefitinib -0.05 | [5] 0.038 | lapatinib 0.014 | pictilisib -0.173

SLFN14 (UniProt P0C7P3)
inactive: saracatinib -0.12 | sotrastaurin 0.128 | alvocidib -0.003 | Tubastatin A 0.134 | defactinib 0.52 | [1] 0.305 | [2] 0.018 | [3] -0.181 | filanesib -0.275 | zotarolimus 0.034 | idasanutlin 0.167 | alisertib 0.136 | [4] 0.192 | gefitinib 0.007 | [5] -0.026 | lapatinib 0.005 | pictilisib 0.056

SMG1 (UniProt Q96Q15)
inactive: saracatinib -0.039 | sotrastaurin 0.041 | Tubastatin A 0.014 | [6] 0.042 | defactinib 0 | rucaparib 0.025 | [1] -0.12 | encorafenib 0.023 | [2] 0.017 | [3] -0.142 | filanesib 0.061 | zotarolimus -0.001 | idasanutlin -0.038 | alisertib -0.002 | [4] 0.055 | gefitinib 0.008 | [5] -0.047 | lapatinib 0.003 | pictilisib 0.018

SMAD2 (UniProt Q15796)
inactive: saracatinib 0.001 | sotrastaurin -0.235 | Tubastatin A 0.016 | [6] 0.025 | defactinib -0.142 | rucaparib 0.043 | [1] 0.039 | encorafenib -0.045 | [2] -0.052 | [3] -0.011 | filanesib 0.091 | zotarolimus 0.043 | idasanutlin 0 | alisertib 0.032 | [4] -0.016 | gefitinib 0.117 | [5] -0.032 | lapatinib 0.043 | pictilisib 0.102

SP1 (UniProt P08047)
inactive: saracatinib 0.022 | sotrastaurin 0.016 | Tubastatin A -0.054 | [6] -0.015 | defactinib 0.01 | rucaparib 0.066 | [1] -0.023 | encorafenib -0.019 | [2] 0.025 | [3] -0.064 | filanesib 0.022 | zotarolimus -0.033 | idasanutlin -0.002 | alisertib -0.025 | [4] -0.007 | gefitinib -0.043 | [5] 0.005 | lapatinib -0.004 | pictilisib 0.142

SMCR8 (UniProt Q8TEV9)
inactive: saracatinib 0.079 | sotrastaurin -0.004 | alvocidib -0.042 | Tubastatin A -0.062 | [6] -0.055 | rucaparib -0.051 | [1] -0.031 | encorafenib -0.166 | [3] -0.085 | filanesib -0.003 | zotarolimus 0.013 | idasanutlin 0.07 | alisertib 0.006 | [4] 0.006 | gefitinib -0.017 | [5] 0.057 | lapatinib -0.07 | pictilisib 0.028

Reprinted from above (2 entries):
SMG1 (UniProt Q96Q15)
inactive: saracatinib -0.039 | sotrastaurin 0.041 | Tubastatin A 0.014 | [6] 0.042 | defactinib 0 | rucaparib 0.025 | [1] -0.12 | encorafenib 0.023 | [2] 0.017 | [3] -0.142 | filanesib 0.061 | zotarolimus -0.001 | idasanutlin -0.038 | alisertib -0.002 | [4] 0.055 | gefitinib 0.008 | [5] -0.047 | lapatinib 0.003 | pictilisib 0.018

SMAD2 (UniProt Q15796)
inactive: saracatinib 0.001 | sotrastaurin -0.235 | Tubastatin A 0.016 | [6] 0.025 | defactinib -0.142 | rucaparib 0.043 | [1] 0.039 | encorafenib -0.045 | [2] -0.052 | [3] -0.011 | filanesib 0.091 | zotarolimus 0.043 | idasanutlin 0 | alisertib 0.032 | [4] -0.016 | gefitinib 0.117 | [5] -0.032 | lapatinib 0.043 | pictilisib 0.102

Remaining list, next part.

SNW1 (UniProt Q13573)
inactive: saracatinib 0.01 | sotrastaurin 0.003 | Tubastatin A -0.033 | [6] 0.038 | defactinib 0.131 | rucaparib 0.042 | [1] -0.082 | encorafenib -0.005 | [2] -0.005 | [3] 0.014 | filanesib 0.039 | zotarolimus -0.068 | idasanutlin 0.034 | alisertib -0.08 | [4] 0.073 | gefitinib -0.068 | [5] 0 | lapatinib 0.011 | pictilisib -0.035

SOAT1 (UniProt P35610)
active: zotarolimus 0.363
inactive: saracatinib 0.026 | sotrastaurin -0.06 | Tubastatin A -0.057 | [6] 0.186 | defactinib -0.053 | rucaparib -0.064 | [1] 0.014 | encorafenib 0.122 | [2] 0.111 | [3] 0 | filanesib -0.1 | idasanutlin -0.184 | alisertib -0.02 | [4] -0.118 | gefitinib 0.137 | [5] 0.045 | lapatinib 0.068 | pictilisib 0.067
